Measured values published in PMC8884482.

Biological target: T1, CaSWC4-6xHis (Capsicum annuum) (UniProt A0A2G3AKV1)
T1 sequence (looked up, limits assumed): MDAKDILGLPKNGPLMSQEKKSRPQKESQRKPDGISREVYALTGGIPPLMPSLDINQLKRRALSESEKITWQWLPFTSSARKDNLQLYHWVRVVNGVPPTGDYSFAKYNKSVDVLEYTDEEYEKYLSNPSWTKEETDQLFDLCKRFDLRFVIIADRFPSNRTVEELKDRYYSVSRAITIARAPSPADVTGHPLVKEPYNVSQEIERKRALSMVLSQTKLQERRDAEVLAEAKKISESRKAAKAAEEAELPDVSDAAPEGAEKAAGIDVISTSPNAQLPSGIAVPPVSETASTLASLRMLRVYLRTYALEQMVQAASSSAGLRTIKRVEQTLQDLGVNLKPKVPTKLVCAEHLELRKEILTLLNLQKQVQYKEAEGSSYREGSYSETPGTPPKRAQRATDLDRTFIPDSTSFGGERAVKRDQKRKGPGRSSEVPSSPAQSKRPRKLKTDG
Assay: EMSA
Details: EMSA: 5x binding buffer listed as 1 M Tris-HCl pH 7.5, 5 M NaCl, 1 M KCl, 1 M MgCl2, 0.5 M EDTA pH 8.0, 10 mg/ml BSA (apparently stock concentrations); recombinant protein; protein details: 6xHis (C-terminal as named); label: 5'-Cy5 on strand 1

“TATAAACTAAATAAAAGAGCCCAACCCAAAAAACTAGTTT (double strand) [PHSP24-AT-EMSA (CaHSP24 promoter AT-rich)]”: binds.
“ATATATACTAAAGGTATAATATAAATCTTTTTATTTTTTT (double strand) [PNPR1-AT-EMSA (CaNPR1 promoter AT-rich)]”: binds.
“TTTCCCAAAAATCGTAATGGAGTCCGACCATAACGAATT (double strand) [PDEF1-AT-EMSA (CaDEF1 promoter AT-rich)]”: binds.

Construct, isoform or probe ends are uncertain for at least one entry. At least one verdict was read from the data and is not stated in words by the source. Protein sequences can lack the tags named with them.
